According to doi:10.1101/2023.08.05.552090:
Results are given in words; binding and its absence hold for the method and conditions named. Some results given as binding are weak or reduced against the parent protein; the word gives no strength.

What was measured:
Assay in all cases: co-purification
[1] = target: T1, S. cerevisiae Mre11 E183R (S. cerevisiae) (UniProt P32829)
T1 sequence: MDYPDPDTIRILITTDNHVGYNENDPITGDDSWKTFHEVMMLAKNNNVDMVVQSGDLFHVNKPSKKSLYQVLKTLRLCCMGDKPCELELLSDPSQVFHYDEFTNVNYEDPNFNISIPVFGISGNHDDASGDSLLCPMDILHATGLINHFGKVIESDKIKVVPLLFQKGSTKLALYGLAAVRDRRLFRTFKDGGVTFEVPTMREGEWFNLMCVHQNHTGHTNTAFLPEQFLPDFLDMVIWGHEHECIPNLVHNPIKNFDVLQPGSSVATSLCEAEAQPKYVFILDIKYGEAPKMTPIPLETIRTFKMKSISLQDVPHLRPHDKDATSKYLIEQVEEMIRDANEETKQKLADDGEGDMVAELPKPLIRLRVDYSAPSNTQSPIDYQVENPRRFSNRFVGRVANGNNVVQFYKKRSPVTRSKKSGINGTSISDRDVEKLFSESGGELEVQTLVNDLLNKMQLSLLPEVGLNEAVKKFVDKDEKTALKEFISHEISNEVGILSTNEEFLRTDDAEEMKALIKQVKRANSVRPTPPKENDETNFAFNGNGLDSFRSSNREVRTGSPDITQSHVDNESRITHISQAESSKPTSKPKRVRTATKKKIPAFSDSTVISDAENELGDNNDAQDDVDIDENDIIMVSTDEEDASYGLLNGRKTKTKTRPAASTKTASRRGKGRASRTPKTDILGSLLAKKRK

[2] = target: T2, S. cerevisiae Mre11 R184E (S. cerevisiae) (UniProt P32829)
T2 sequence: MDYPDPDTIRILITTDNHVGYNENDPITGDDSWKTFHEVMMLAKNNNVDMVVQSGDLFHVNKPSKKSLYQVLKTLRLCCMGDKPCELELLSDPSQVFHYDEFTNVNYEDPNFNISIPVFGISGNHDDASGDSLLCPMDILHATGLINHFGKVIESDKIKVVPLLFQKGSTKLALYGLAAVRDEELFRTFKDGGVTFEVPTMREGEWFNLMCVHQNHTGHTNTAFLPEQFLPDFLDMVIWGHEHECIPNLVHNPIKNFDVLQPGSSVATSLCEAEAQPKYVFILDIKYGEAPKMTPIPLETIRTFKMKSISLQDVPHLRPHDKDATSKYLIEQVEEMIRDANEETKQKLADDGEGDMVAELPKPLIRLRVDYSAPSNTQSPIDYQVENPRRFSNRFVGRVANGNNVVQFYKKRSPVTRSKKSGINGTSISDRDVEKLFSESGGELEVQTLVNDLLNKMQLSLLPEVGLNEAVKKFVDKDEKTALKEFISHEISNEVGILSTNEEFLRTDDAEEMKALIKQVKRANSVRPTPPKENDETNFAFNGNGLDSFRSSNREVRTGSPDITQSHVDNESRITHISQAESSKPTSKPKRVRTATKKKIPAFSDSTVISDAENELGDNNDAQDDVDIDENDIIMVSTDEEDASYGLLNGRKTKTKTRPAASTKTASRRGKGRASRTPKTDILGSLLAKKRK

[3] = target: T3, S. cerevisiae Mre11 R181E (S. cerevisiae) (UniProt P32829)
T3 sequence: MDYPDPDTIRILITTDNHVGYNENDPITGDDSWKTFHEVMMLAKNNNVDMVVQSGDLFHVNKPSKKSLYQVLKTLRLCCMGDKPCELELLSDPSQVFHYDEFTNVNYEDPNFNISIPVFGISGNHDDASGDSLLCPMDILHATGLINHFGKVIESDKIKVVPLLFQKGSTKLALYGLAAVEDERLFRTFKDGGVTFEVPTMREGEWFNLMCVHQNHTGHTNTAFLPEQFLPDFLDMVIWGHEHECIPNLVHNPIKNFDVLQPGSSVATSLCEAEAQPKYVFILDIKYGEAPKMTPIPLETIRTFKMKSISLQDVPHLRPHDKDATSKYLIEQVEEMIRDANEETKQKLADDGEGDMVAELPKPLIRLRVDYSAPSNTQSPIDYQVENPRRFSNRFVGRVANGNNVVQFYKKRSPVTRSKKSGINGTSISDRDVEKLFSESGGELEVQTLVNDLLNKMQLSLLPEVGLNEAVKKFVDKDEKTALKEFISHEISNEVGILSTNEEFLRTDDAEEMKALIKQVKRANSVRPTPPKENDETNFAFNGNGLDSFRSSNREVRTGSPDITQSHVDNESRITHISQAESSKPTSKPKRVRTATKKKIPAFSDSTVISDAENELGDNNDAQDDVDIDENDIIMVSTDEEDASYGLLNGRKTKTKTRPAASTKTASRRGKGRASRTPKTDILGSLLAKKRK

[4] = target: T4, S. cerevisiae Mre11 (S. cerevisiae) (UniProt P32829)
T4 sequence: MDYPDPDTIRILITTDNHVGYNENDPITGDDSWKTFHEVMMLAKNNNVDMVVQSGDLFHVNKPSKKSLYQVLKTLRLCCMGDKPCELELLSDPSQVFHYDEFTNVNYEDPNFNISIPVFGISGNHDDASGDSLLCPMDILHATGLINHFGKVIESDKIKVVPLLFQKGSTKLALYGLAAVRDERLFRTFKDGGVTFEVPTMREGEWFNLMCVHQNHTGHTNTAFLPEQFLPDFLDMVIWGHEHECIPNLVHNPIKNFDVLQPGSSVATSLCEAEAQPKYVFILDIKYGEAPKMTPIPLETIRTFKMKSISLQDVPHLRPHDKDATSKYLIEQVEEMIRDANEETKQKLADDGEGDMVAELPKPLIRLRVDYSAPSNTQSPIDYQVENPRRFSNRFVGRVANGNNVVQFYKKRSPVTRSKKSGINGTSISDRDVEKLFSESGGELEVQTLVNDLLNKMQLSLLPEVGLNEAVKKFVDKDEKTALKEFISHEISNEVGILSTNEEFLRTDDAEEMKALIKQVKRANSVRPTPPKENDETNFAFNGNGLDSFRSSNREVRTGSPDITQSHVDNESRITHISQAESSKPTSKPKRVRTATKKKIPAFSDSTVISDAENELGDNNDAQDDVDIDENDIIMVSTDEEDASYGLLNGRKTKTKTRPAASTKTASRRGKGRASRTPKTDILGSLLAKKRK

[5] = target: T5, S. cerevisiae Mre11 R187E (S. cerevisiae) (UniProt P32829)
T5 sequence: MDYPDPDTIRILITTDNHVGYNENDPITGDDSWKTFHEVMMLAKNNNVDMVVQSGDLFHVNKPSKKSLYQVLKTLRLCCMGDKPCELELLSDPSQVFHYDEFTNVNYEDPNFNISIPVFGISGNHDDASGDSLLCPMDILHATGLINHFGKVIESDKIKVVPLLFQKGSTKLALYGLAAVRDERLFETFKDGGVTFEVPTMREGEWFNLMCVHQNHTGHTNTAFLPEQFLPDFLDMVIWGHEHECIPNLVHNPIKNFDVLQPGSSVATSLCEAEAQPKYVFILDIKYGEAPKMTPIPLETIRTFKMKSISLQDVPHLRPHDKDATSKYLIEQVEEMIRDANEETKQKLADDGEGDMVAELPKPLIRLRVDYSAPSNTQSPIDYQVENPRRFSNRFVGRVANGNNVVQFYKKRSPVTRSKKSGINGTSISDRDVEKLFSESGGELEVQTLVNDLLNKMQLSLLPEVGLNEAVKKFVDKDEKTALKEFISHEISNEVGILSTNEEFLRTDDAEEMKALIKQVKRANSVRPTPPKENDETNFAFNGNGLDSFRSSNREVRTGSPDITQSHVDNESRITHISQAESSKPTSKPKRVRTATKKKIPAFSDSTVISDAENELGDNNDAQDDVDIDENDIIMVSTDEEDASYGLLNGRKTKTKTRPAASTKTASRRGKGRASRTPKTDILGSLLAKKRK

Measured: binding

B1: S. cerevisiae Xrs2 (protein, UniProt P33301 1-854)
chain: MWVVRYQNTLEDGSISFISCCLQAFKTYSIGRSSKNPLIIKNDKSISRQHITFKWEINNSSDLKHSSLCLVNKGKLTSLNKKFMKVGETFTINASDVLKSTIIELGTTPIRIEFEWINEVWNIPPHLTQFRTMLSEYGISTEISINDIPANLMISDYPKSEDNSIRELYALVSTIPMKKSRFLMELCNTLLPTSKTNLKFDEMWNDMISNPEYNVFDFDPNILLSKFMRLNNIRVLTTIKSEPRLSSLLRTFNINLFAFDNIDSLYKYVDSLEASTEYLILTTTDKKENGKILCTIKTMLTSIIDGTLSAVINMKGASSRTLDNGKFDQISEGMSTILKTSRAPEVEASPVVSKKRKLNRRRVLPLDSLDFFAGGLSTKTLSENRSLTDAKRLNCGAESKTVISSPNIAEADEKHAPFLQNALKPTEDIGKKSGHSSPGAIIVSSPNLGTVNTSEDSLDKSLQSHKLPQPSLPEVAGIGSQTISSNSADYETAAVNSMDDAEVTKNFRVNHHQNIEQPSKNIRKLSNYSREISSPLQENCKSPVKELSIKEKSGTPHAFVEAIQETKNREVKRVKSTIVELKDEELSEEAINQLKNLAIVEPSNNLLRKSFDSEGNKTSRTTEKWENSLMEPEWHKRKNFKTFVKVRPKSKAHKEEGKNNTQSSDFIRNAAFLITRNYVPLKKYSKKDTTTKWGTEENEDMFALTEMERFGSNTFMSDNINSNTIQKRSQALNRFTNEDSSNEGEEDSFSFSRCSGTAASVQPLKNKIFITDEDDLGDIDDKSDRLNHRENNRNLFVVKEMNLRPNLSEECSKQSRHSRSATSRSRGSFGASNNGDGDDDDDDGPKFTFKRRKG
binds: all assays above
